Inconclusive means that the source gave no clear call. Such entries were picked first, then a sample of the others. For some assays here: Potencies of inconclusive entries are doubtful fits and often do not repeat. Activity calls are given as the source filed them. Rule for the calls: active = hit-call score of the fitted dose curve at least 0.9, where 1 is the maximum; inconclusive = response in the unintended direction; inactive = score below 0.9.
Legend:
[1] = STM_H9_NormalizedViability: Cytotoxicity Assessment at 120 hours in the Stemina devTOX quickPredict H9 human embryonic stem cell (hESC)-based Assay (AID 2283784)
Summary of the method: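 CellTiter-Fluor RFU, background-subtracted, expressed relative to 0.1% DMSO neutral control by plate. Pluripotent H9 cells; treatment with daily re-dosing. Plates carried 1uM methotrexate (positive) and 5 nM methotrexate (negative) references.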

By UniProt entry, the sequences of proteins in these tests, tags left out. Where a name states a change or a piece, a line headed by the entry shows the natural chain unless it says otherwise.
UniProt P04406: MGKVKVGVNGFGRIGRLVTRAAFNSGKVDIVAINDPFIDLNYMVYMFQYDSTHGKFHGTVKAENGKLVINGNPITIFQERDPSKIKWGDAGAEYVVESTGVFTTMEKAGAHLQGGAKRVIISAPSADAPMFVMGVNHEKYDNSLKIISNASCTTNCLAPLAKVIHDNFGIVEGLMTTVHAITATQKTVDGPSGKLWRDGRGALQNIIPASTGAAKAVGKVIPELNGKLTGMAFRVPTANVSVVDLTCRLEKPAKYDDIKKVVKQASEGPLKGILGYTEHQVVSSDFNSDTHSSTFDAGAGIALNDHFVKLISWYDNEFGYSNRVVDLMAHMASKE
UniProt P03372, whole entry, looked up: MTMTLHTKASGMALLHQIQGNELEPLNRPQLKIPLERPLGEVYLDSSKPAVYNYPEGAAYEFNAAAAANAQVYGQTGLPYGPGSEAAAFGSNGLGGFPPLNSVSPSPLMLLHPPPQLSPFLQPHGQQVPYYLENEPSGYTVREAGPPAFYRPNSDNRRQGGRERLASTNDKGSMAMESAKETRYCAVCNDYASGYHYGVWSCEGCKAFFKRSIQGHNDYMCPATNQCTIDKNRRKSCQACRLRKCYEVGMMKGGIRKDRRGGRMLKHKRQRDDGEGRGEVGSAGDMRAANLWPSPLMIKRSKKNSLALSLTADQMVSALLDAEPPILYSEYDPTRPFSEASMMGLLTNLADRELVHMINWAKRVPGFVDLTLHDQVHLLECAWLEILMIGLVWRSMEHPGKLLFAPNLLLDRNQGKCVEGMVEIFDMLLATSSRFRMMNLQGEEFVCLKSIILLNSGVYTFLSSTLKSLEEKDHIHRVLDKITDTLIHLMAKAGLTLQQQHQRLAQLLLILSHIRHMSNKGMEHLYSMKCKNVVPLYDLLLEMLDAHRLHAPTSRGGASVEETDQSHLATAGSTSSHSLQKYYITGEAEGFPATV
UniProt P29350: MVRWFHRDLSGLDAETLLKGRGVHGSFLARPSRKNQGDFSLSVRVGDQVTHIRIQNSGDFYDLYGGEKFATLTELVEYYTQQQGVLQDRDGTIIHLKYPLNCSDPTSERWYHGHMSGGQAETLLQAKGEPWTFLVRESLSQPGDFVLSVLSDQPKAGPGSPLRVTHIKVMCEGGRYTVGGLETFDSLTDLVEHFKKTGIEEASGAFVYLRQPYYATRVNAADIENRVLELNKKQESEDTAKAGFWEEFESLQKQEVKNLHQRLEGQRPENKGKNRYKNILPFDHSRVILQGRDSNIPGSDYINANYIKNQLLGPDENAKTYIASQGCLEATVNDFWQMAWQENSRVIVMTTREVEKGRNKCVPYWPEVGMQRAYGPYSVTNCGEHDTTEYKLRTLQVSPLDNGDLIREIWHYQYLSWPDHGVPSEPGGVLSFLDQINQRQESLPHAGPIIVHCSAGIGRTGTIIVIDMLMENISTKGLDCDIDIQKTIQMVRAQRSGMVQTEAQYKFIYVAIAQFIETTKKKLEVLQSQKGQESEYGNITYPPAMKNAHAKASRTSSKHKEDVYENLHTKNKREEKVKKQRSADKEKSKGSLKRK
UniProt P08684, whole entry, looked up: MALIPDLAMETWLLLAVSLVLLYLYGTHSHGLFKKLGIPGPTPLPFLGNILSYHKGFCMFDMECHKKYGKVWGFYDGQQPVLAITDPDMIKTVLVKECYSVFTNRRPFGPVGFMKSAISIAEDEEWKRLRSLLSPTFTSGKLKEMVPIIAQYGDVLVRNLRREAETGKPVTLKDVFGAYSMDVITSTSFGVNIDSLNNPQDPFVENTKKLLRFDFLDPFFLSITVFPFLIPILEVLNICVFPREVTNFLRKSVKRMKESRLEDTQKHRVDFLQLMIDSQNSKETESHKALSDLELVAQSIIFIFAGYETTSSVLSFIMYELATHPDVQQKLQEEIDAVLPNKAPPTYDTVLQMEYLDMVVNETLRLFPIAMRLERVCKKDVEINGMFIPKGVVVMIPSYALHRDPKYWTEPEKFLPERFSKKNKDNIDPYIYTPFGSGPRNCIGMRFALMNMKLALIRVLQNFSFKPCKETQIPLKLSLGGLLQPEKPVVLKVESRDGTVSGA
UniProt P42336, whole entry, looked up: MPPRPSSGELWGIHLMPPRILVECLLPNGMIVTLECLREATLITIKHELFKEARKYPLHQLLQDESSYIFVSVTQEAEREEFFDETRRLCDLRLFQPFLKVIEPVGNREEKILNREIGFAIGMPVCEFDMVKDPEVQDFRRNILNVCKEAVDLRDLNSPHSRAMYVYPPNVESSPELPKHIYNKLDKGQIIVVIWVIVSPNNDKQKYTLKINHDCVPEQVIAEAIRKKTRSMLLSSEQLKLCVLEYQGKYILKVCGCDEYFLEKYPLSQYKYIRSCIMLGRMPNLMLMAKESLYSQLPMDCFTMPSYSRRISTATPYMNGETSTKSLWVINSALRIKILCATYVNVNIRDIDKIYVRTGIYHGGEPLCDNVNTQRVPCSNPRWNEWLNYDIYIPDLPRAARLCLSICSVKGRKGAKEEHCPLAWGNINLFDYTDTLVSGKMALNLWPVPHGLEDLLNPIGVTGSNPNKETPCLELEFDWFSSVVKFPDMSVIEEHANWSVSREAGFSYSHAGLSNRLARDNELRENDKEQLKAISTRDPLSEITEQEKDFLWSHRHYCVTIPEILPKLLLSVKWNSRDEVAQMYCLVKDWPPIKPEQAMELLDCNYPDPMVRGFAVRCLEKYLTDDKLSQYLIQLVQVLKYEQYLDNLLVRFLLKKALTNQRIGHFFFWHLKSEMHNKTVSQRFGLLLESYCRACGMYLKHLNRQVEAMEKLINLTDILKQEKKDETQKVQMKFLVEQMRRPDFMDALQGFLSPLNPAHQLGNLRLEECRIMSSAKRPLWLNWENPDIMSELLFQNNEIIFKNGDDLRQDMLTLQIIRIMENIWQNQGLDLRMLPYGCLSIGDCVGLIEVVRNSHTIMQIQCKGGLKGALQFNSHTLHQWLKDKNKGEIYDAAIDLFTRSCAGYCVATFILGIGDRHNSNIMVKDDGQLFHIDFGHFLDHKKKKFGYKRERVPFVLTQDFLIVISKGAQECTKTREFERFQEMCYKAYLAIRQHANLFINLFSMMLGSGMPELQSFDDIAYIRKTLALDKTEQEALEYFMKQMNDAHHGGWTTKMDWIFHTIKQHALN
UniProt P35372, whole entry, looked up: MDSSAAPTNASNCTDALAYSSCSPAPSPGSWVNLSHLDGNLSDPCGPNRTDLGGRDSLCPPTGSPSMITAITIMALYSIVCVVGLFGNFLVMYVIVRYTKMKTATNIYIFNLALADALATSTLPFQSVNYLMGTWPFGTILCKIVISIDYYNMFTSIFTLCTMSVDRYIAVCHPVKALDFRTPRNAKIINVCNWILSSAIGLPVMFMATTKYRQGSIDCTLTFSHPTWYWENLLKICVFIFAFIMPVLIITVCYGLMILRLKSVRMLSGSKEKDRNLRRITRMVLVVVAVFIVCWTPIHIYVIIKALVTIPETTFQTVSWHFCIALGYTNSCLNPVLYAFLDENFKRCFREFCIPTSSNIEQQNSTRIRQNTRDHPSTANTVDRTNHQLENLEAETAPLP
UniProt P31749: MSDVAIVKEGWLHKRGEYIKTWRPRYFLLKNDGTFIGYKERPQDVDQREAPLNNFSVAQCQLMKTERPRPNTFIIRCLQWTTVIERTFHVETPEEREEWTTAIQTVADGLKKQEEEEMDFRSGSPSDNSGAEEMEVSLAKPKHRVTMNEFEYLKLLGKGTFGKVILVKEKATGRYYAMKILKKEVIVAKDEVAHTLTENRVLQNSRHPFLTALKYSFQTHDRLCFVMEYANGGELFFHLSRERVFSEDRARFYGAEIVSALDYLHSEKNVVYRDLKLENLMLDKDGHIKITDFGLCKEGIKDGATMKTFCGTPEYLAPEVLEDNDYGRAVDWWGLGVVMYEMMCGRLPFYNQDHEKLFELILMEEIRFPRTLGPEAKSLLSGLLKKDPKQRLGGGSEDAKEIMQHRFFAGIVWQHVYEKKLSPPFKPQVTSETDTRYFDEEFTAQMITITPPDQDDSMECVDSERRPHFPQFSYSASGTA
UniProt Q9UNQ0: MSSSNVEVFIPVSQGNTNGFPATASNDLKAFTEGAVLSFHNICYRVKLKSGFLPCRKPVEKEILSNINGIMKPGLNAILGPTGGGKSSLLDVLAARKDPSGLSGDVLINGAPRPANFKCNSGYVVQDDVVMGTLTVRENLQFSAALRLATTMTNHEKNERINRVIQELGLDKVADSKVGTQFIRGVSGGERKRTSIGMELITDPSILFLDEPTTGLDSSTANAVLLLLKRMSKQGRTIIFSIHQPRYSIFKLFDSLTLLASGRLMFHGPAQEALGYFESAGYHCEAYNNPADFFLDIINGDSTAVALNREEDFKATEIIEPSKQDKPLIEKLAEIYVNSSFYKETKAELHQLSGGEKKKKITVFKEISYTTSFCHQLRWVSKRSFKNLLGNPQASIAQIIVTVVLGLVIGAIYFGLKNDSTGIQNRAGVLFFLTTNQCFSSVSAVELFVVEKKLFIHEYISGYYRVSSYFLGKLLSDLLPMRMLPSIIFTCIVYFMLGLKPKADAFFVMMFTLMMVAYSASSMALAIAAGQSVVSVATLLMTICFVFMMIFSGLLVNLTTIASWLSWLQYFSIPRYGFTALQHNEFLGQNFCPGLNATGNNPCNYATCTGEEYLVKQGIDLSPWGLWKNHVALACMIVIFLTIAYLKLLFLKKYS

[2] = read-out: Glyceraldehyde-3-phosphate dehydrogenase (Homo sapiens) (UniProt P04406); test: CLD_GAPDH_6hr: CellzDirect (CLD) Gene Expression Assay for Baseline Control (Glyceraldehyde 3-phosphate dehydrogenase) at 6 hours (AID 2283681)
Summary of the method: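 GAPDH baseline-control readout from qNPA (S1 nuclease digestion, probe hybridization, chemiluminescence) in lysates of cultured human hepatocytes harvested 6 h post-dosing. Chemicals tested at multiple concentrations versus 0.2% DMSO vehicle; microscopy-based cytotoxicity flagged yes/no.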

[3] = NVS_IC_rCaBTZCHL: NovaScreen (NVS) Ion Channel Assay for Calcium Channel, Type L, Benzothiazepine Site (CaBTZCHL) (AID 2283337)
Summary of the method: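 Rat cortical membrane preparation, cell-free. Radioligand displaced by test chemical; 1.5 h incubation; filtration, scintillation count. DMSO = negative control/baseline. Primary: duplicate, 25 uM; secondary: concentration series.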

[4] = molecular target: Estrogen receptor (Homo sapiens) (UniProt P03372); test: OT_ER_ERaERa_0480: Odyssey Thera (OT) 8-hour HEK293T Protein-Complementation Assay for Estrogen Receptor-alpha/-alpha Homodimer (AID 2283351);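 note: rise in fluorescence from reassembled reporter fragments on ERα LBD homodimer in nucleus or whole cell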
Summary of the method: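 Read-out: fluorescence intensity rise relative to DMSO, nuclear for agonists, nuclear plus cytoplasmic for antagonists. Construct is the ERα LBD (aa 310-547) homodimer fragment-complementation pair, stably expressed in HEK293T; exposure 8 h.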

[5] = molecular target: human Protein Tyrosine Phosphatase Non-receptor Type 6 (PTPN6), PTPN6 (gene 5777) (UniProt P29350); test: NVS_ENZ_hPTPN6: NovaScreen (NVS) Enzymatic Assay for human Protein Tyrosine Phosphatase Non-receptor Type 6 (PTPN6) (AID 2283210)
Summary of the method: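 Recombinant human PTPN6 from SF9 cells, enzyme activity followed by fluorescence after mobility-shift separation of substrate and product at 1.33 h. Chemicals first tested at a single 25 uM in duplicate, then confirmed across concentration series; loss of signal relative to DMSO.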

[6] = read-out: xenobiotic metabolism (CYP1A2), CYP1A2 (gene 1544); test: CLD_CYP1A2_6hr: CellzDirect (CLD) Gene Expression Assay for xenobiotic metabolism (CYP1A2) at 6 hours (AID 2283663)
Summary of the method: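 mRNA levels quantified by quantitative nuclease protection assay with chemiluminescence, 6 h after dosing human primary hepatocyte cultures (two donors) across several concentrations, vehicle 0.2% DMSO. Induction fitted upward versus DMSO; phase-contrast cytotoxicity annotated.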

[7] = read-out: organic anion transporter (SLCO1B1), SLCO1B1 (gene 10599); test: CLD_SLCO1B1_24hr: CellzDirect (CLD) Gene Expression Assay for organic anion transporter (SLCO1B1) at 24 hours (AID 2283690)
Summary of the method: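 SLCO1B1 mRNA induction read at 24 h by quantitative nuclease protection assay (chemiluminescence), analyzed against DMSO baseline. Human hepatocyte cultures from separate donors received fresh dosing solutions daily; vehicle 0.2% DMSO; cytotoxicity flagged by phase-contrast morphology.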

[8] = read-out: Cytochrome P450 3A4 (Homo sapiens) (UniProt P08684); test: CLD_CYP3A4_48hr: CellzDirect (CLD) Gene Expression Assay for xenobiotic metabolism (CYP3A4) at 48 hours (AID 2283698)
Summary of the method: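 CYP3A4 induction read by qNPA chemiluminescence after 48 h, with fresh dosing solutions on consecutive days, in cultured human hepatocytes (two donors). Vehicle 0.2% DMSO as baseline; microscopy-based cytotoxicity annotated yes/no alongside data.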

[9] = CCTE_Shafer_MEA_dev_bursting_electrodes_number: CCTE's Neural Network Formation Assay for Number of Bursting Electrodes, Shafer Lab (AID 2284043);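 for AC50: potency is for loss of bursting electrodes relative to DMSO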
Summary of the method: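 Counted: electrodes with burst rate ≥1 per 2 min in each well. Cells: primary rat cortex, 1.5 x 10^5/well, on 16-electrode MEA wells. Exposure: DIV 0–12, compound renewed DIV 5 and 9. Recording days 5, 7, 9, 12; AUC vs DMSO baseline.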

[10] = CCTE_Mundy_HCI_Cortical_Synap_Neur_Matur_NeuronCount: CCTE's Synaptogenesis and Neurite Maturation Assay in rat cortical cells for Neuron Count, Mundy Lab (AID 2284242);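 note: neuron number from Hoechst nuclei and MAP2 staining by high-content imaging; hits reduce neuron count versus DMSO baseline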
Summary of the method: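 Rat cortical cultures; AraC DIV 5; chemical dosing + media change DIV 7 to DIV 12 (288.33 h readout). Fix, Hoechst, anti-MAP2/anti-synaptophysin immunostain; HCI neuron count vs DMSO baseline.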

[11] = molecular target: human Phosphoinositide 3-kinase alpha (PI3Ka), PIK3CA (gene 5290) (UniProt P42336); test: NVS_ENZ_hPI3Ka: NovaScreen (NVS) Enzymatic Assay for human Phosphoinositide 3-kinase alpha (PI3Ka) (AID 2283196)
Summary of the method: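 Fluorescence/mobility-shift readout of substrate conversion by recombinant enzyme, 1 h post-dosing. Primary screen in duplicate at 25 uM; actives (e.g. ≥30% inhibition) retested in singleton concentration-response, top concentration 50 uM.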

[12] = read-out: ABC Transporter (ABCB11), ABCB11 (gene 8647); test: CLD_ABCB11_6hr: CellzDirect (CLD) Gene Expression Assay for ABC Transporter (ABCB11) at 6 hours (AID 2283675);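 note: hits raise ABCB11 mRNA level so AC50 marks induction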
Summary of the method: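 Read-out was ABCB11 mRNA gain of signal by quantitative nuclease protection assay, relative to 0.2% DMSO vehicle, 6 h post-dose. Cells were primary human hepatocytes from two donors, treated across multiple concentrations; phase-contrast cytotoxicity noted yes/no.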

[13] = read-out: ABC Transporter (ABCB1), ABCB1 (gene 5243); test: CLD_ABCB1_24hr: CellzDirect (CLD) Gene Expression Assay for ABC Transporter (ABCB1) at 24 hours (AID 2283684)
Summary of the method: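 ABCB1 mRNA induction versus 0.2% DMSO vehicle was read by qNPA chemiluminescence at 24 h. Cultured human hepatocytes from two donor preparations received daily fresh dosing, and phase-contrast cytotoxicity calls were annotated alongside the data.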

[14] = read-out: xenobiotic metabolism (CYP1A1), CYP1A1 (gene 1543); test: CLD_CYP1A1_48hr: CellzDirect (CLD) Gene Expression Assay for xenobiotic metabolism (CYP1A1) at 48 hours (AID 2283705)
Summary of the method: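 CYP1A1 transcript measured by quantitative nuclease protection (chemiluminescent) 48 h after two daily treatments of human hepatocyte cultures, versus 0.2% DMSO. Morphology-based cytotoxicity flags accompany data; two donor preparations used.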

[15] = read-out: alkyl and aryl transferase (GSTA2), GSTA2 (gene 2939); test: CLD_GSTA2_6hr: CellzDirect (CLD) Gene Expression Assay for alkyl and aryl transferase (GSTA2) at 6 hours (AID 2283666)
Summary of the method: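 GSTA2 transcript induction at 6 h, quantified by nuclease protection (qNPA) with chemiluminescent detection, in human liver primary hepatocytes exposed to several compound concentrations with 0.2% DMSO as baseline; phase-contrast morphology annotated apparent cytotoxicity.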

[16] = molecular target: human Opioid Receptor Mu (Opiate Mu), OPRM1 (gene 4988) (UniProt P35372); test: NVS_GPCR_hOpiate_mu: NovaScreen (NVS) G Protein-Coupled Receptor Assay for human Opioid Receptor Mu (Opiate Mu) (AID 2283290);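 note: hits lower bound tracer signal versus DMSO meaning displacement of the ligand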
Summary of the method: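 Cell-free radioligand binding to membranes from CHO cells expressing the receptor; bound tracer measured by filter-based scintillation counting 2.5 hours after dosing. Loss of signal versus DMSO baseline reflects displacement; primary screen at 25 uM in duplicate, actives followed up in concentration series.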

[17] = molecular target: human AKT serine/threonine Kinase 1 (AKT1), AKT1 (gene 207) (UniProt P31749); test: NVS_ENZ_hAKT1: NovaScreen (NVS) Enzymatic Assay for human AKT serine/threonine Kinase 1 (AKT1) (AID 2283138)
Summary of the method: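 Fluorescence and mobility-shift readout of kinase activity, taken 1 h post-dosing in a cell-free format with recombinant protein. Primary screen at 25 uM in duplicate; hits (e.g. 30% inhibition) retested in concentration series topping at 50 uM.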

[18] = Tanguay_ZF_120hpf_PE_legacy: (Legacy) Oregon State University Tanguay Lab 120 Hour Post-fertilization zebrafish Assay for Pericardial Edema (AID 2283640);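 note: potency for increased incidence of pericardial edema versus DMSO baseline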
Summary of the method: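 Embryos from wild-type 5D adults were staged, then dosed in 0.64% DMSO. They were kept sealed in the dark at 28C until 120 hpf. Pericardial edema was then recorded as present or absent.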

[19] = read-out: Broad substrate specificity ATP-binding cassette transporter ABCG2 (Homo sapiens) (UniProt Q9UNQ0); test: CLD_ABCG2_24hr: CellzDirect (CLD) Gene Expression Assay for ABC Transporter (ABCG2) at 24 hours (AID 2283685);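 for AC50: AC50 is for induction meaning signal gain over DMSO vehicle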
Summary of the method: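 ABCG2 mRNA induction, read as gain of chemiluminescent signal over 0.2% DMSO, was measured by quantitative nuclease protection at 24 h. Cultured human liver hepatocytes were given fresh dosing solutions of test chemicals at several concentrations each day.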

With `Nc1ncn[nH]1` the AC50 [1] was inconclusive: 10.7 µM.
With `CCCSP(=O)(OCC)Oc1ccc(Br)cc1Cl` (configuration not stated) the AC50 [2] was inconclusive: 20 µM.
In the case of `O=P(OCC(Br)CBr)(OCC(Br)CBr)OCC(Br)CBr` (configuration not stated), the AC50 [3] is reported as inconclusive: 0.103 µM and the outcome [4] is reported as “inactive”.
With `CCCSC(=O)N(CCC)CCC` the AC50 [5] was inconclusive: 4.96 µM.
In the case of `COP(=O)(NC(C)=O)SC` (configuration not stated), the outcome [6] is reported as “inactive”, the outcome [7] is reported as “inactive” and the AC50 [8] is reported as inconclusive: 1.89 µM. For the same molecule, the AC50 [9] was inconclusive: 15 µM and the AC50 [10] was inconclusive: 0.000862 µM.
In the case of `COP(=S)(OC)Oc1cc(Cl)c(Cl)cc1Cl`, the outcome [11] is reported as “inactive”.
In the case of `CC(C)C1(C)N=C(c2ncccc2C(=O)O)NC1=O` (configuration not stated), the AC50 [12] is reported as inconclusive: 1.9 µM, the outcome [13] is reported as “inactive” and the AC50 [14] is reported as inconclusive: 20 µM.
With `CCNc1nc(Cl)nc(NC(C)(C)C#N)n1` the AC50 [15] was inconclusive: 0.0262 µM, the AC50 [2] was inconclusive: 20 µM and the outcome [7] was “inactive”. For the same molecule, the AC50 [1] was inconclusive: 27.9 µM.
With `CC(O)C#N` (configuration not stated) the AC50 [16] was inconclusive: 1.37 µM.
In the case of `Oc1c(Cl)cc(Cl)cc1Cl`, the AC50 [5] is reported as inconclusive: 0.697 µM.
With `Nc1cnn(-c2ccccc2)c(=O)c1Cl` the AC50 [12] was inconclusive: 20 µM and the AC50 [2] was inconclusive: 20 µM.
For `OCCN(CCO)CCO`, the AC50 [17] was inconclusive: 25 µM.
For `ClC(Cl)(Cl)c1ccccc1`, the AC50 [5] was inconclusive: 25 µM and the AC50 [18] was inconclusive: 5.27 µM.
With `CC(C)(C)c1ccc(CCOc2ncnc3ccccc23)cc1` the AC50 [3] was inconclusive: 25 µM.
For `C=CC(Cl)CCl` (configuration not stated), the AC50 [3] was inconclusive: 0.102 µM.
With `CC(C)[C@H](C(=O)O[C@H](C#N)c1cccc(Oc2ccccc2)c1)c1ccc(Cl)cc1` the outcome [6] was “inactive”.
With `CCCN(CC)CC1COC2(CCC(C(C)(C)C)CC2)O1` (configuration not stated) the AC50 [12] was inconclusive: 2.44 µM, the AC50 [2] was inconclusive: 20 µM and the AC50 [9] was active: 0.223 µM.
With `COP(=O)(OC)C(O)C(Cl)(Cl)Cl` (configuration not stated) the outcome [15] was “inactive”, the outcome [13] was “inactive” and the AC50 [10] was active: 50 µM.
For `CN(C)C(=O)Nc1cccc(C(F)(F)F)c1`, the AC50 [15] was inconclusive: 20 µM, the AC50 [12] was inconclusive: 20 µM and the AC50 [2] was inconclusive: 20 µM. For the same molecule, the outcome [19] was “inactive” and the outcome [1] was “inactive”.
For `CN(C)[C@@H]1C(=O)C(C(N)=O)=C(O)[C@@]2(O)C(=O)C3=C(O)c4c(O)cccc4[C@@](C)(O)[C@H]3C[C@@H]12`, the AC50 [5] was active: 25 µM, the outcome [9] was “inactive” and the AC50 [10] was inconclusive: 0.195 µM.
With `CC(Oc1cccc(Cl)c1)C(=O)O` (configuration not stated) the AC50 [19] was inconclusive: 0.00834 µM, the AC50 [7] was inconclusive: 20 µM and the AC50 [8] was inconclusive: 0.0109 µM. For the same molecule, the AC50 [14] was inconclusive: 20 µM.
For `CCCN(CCC)c1c([N+](=O)[O-])cc(C(C)C)cc1[N+](=O)[O-]`, the AC50 [4] was active: 36.8 µM.

Reference: PubChem BioAssay (EPA / NIEHS)
